The values that follow come from US6927223B1, “Use of serotonin agents for adjunct therapy in the treatment of cancer” (priority 2000, dated 2005).

One assay has as its system A375 melanoma cells. Nature of the assay: cells. Particulars: Homo sapiens, A-375, read-out: fluoxetine level causing 50% inhibition of tritiated thymidine incorporation.
For a further assay, the system named is B16BL6 melanoma cells. Put plainly: cells. Particulars: Mus musculus, B16-BL6, read-out: fluoxetine level causing 50% inhibition of tritiated thymidine incorporation. (Uptake of a labelled nucleoside into DNA is a usual measure of proliferation.)

Structures are written as SMILES.

On to `CNCCC(Oc1ccc(C(F)(F)F)cc1)c1ccccc1` (centres unmarked) [fluoxetine], for which the IC50 in the assay with A375 melanoma cells and in the assay on B16BL6 melanoma cells was 4 to 15 µM each time.
